This series has as its target mTREX1 truncated (nuclease domain) (Mus musculus) (UniProt Q91XB0). The experiment in a line: fluorescence anisotropy. The following applies: 20 mM EDTA, extrapolated; FA: 5 nM FAM nucleic acid, 120 mM NaCl, 20 mM Tris pH 7.0, 20 mM EDTA, room temperature, 30 min; recombinant protein; residues 1-242; protein details: His-tag; label: 5'-FAM on strand 1.

Sequences of proteins named here, by UniProt entry; tags and fusion partners are left off. Residues count along the entry.
UniProt Q91XB0, 1-242: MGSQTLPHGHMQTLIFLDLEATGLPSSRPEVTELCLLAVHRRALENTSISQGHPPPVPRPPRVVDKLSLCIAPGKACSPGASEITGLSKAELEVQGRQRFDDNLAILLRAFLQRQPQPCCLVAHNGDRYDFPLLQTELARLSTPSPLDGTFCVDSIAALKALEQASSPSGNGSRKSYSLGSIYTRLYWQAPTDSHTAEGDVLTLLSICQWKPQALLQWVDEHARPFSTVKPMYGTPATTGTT

Usually Kd stands for the constant that tells how readily two partners part at equilibrium. Regarding “ACUGGACAAAUACUCCGAGG / CCUCGGAGUAUUUGUCCAGU [dsRNA20]”, the Kd is greater than 65.5 µM.

Values taken from paper PMC10681709.
